Z-score data for 29 sequences are collected here from PubChem BioAssay AID1508600 (Functional Genomics Laboratory (NCATS/FGL), 2020).

About 3,700 (7%) of roughly 53,000 sequences were called active.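 Rule for the calls: active = gene knockdowns whose robust z-score for IL-1 alpha signal is at least 2 or at most -2, so actives lie on both sides; inactive = the rest.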 Some of the results follow.

A short description of the assay: Components of the Cytosolic LPS Sensing Pathway: Gene Identification via Genome-wide siRNA Screen.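 Note: robust z of the log signal after scaling to non-targeting control siRNA wells of the plate.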 The settings on record: RAW264.7 macrophages, IL-1a HTRF, actives lie on both sides, screened at 100 nM (by protocol), cells primed 5 h with Pam3CSK4 first. Summed up:
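Supernatant IL-1a by HTRF from RAW264.7 cells primed with Pam3CSK4 (5 hours) and transfected with LipidA (24 hour) after 48h siRNA knockdown at 100 nM; cell viability checked with CellTiter-Glo.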
For orientation: TR-FRET usually uses a lanthanide donor and a delayed reading to cut background.
Consider GCCGGAUACUCAAAUAACGTT against Svs5, for which the z-score is inactive: -1.23.

Consider GGAGGAUGCAGCUAACAAUTT against Tuba8, for which the z-score was inactive: 0.0966.

For GGUCGGUUGCUUUAGUGAATT against Magee2, the z-score was inactive: 1.42.

For the sequence GGCUAAAGCGCAAAAGGGCTT against Nav1, the z-score was inactive: 0.492.

In the case of GGCAAAGUACUACGUGCAGTT against Sh3bp5, the z-score was inactive: -0.225.

For the sequence GGAUCAAUGCUAAGCUCCATT against Olfr1176, the z-score is inactive: 0.0409.

As for GGGCCAGGUAUUCAUGGAATT against Ciapin1, the z-score is inactive: -0.0694.

As to CCAUCUUGAGUGAUAAGAATT against St3gal4, the z-score is inactive: -0.0981.

GGAUAUGCUCUCUUGGCUCTT against Ctsk: the z-score is active: -2.07.

Turning to “GCUCAGAAAUUAAUCAUCATT against C330011M18Rik”, the z-score was inactive: -0.793.

For the sequence GGAAGAGUGUACCAGUGUUTT against Ccdc80, the z-score is inactive: 0.559.

As to GCUAUUGAUGAACCUAACATT against Trpc5, the z-score is inactive: -0.342.

Turning to GGAAAUCUCACGUAAUUAATT against Anxa9, the z-score is inactive: -0.885.

GAUUCCACGCCAAUUCAUCTT against Ccl3: the z-score is inactive: 1.52.

GGCAUAAGCCAUUCAGCCGTT against Fastkd2: the z-score was inactive: -0.56.

For CCUGGACCCAUGAAGUCUUTT against Ahnak, the z-score was inactive: 0.911.

In the case of GGCUGCUCGAAUCAGUCAUTT against Slc27a3, the z-score was inactive: 0.237.

As for CCCAGCUCCUCCAAAUAGUTT against Rwdd3, the z-score is inactive: -0.149.

With GACCUUGAAGAAGCCAAUCTT against Entr1, the z-score is inactive: 0.095.

For the sequence CGCUUAAAGACCUCAUCUCTT against Ap1b1, the z-score was inactive: 0.169.

Regarding GGCCUUCUAUUUUGUCAAUTT against Limd1, the z-score was inactive: 0.403.

In the case of GGGAGUCCUGAAGGACUACTT against Lgmn, the z-score was inactive: -0.0947.

As to CCAAGACCGGUUAAAAGAGTT against Myo1e, the z-score is inactive: -0.252.

On to GCCACCUUCCAAGCUCAAATT against H2bu2, for which the z-score is inactive: 0.48.

For the sequence GGUUUCUGUCCAGAUAAAATT against Ykt6, the z-score is inactive: -0.535.

As to GGCGAAGGAAGAGUGUGAATT against Sox8, the z-score is inactive: -0.668.

Regarding GGCAACUUUUUACACAAAGTT against Vmn1r14, the z-score was inactive: 1.74.

Regarding GCGAGGAGAGUGUGUUUUCTT against Bop1, the z-score was active: 2.08.

As for GGCAAAAUUGGCAAAGAAUTT against Tollip, the z-score is inactive: 0.507.
